Structures are written as SMILES. The list is a part of this screen's results and no random one: it is rich in T/C values a quarter to a half above the control, in often repeated tests (any T/C) and in doses without a T/C. Further doses and runs are listed elsewhere. T/C is the treated group as % of the vehicle group. Some entries give survivors of the animals treated and no T/C: the source files T/C as zero there, which appears to mark a toxic dose or a test without result, not a measured value. Some survivor counts are full or nearly so, which does not show that the dose was tolerated: survival well below the control is almost never listed, so the zero probably covers shortened survival too. Survivors were counted at the toxicity check, usually on the fifth day, unless a day is given; later deaths do not show. Schedules are NCI's codes, taken here to give the interval after Q, in days (D) or hours (H), and the number of doses after X. Some doses were run more than once; their values stand side by side, smallest first. Where survival is the endpoint, the PubChem record calls one and a half times the control and up active, and a quarter to a half above the control has no call in these data; cut-offs in other NCI protocols can differ. Some T/C values carry the count of animals alive at the toxicity check (mostly the fifth day); without a count, all were alive then.

Our source for the survivor count and T/C values is PubChem BioAssay AID248 (DTP/NCI, 2004).

The experiment relates to L1210 leukemia ip in BDF1 mice, survival T/C. In words: NCI In Vivo Anticancer Drug Screen. Data for tumor model L1210 Leukemia (intraperitoneal) in B6D2F1 (BDF1) mice. Conditions: T/C endpoint: mean survival time, higher T/C = longer survival.
The mark [1] stands for this setting: dose: 200.0 mg/kg/injection, schedule: Q01DX009 (ip), vehicle: saline with Tween-80.
The mark [2] stands for this setting: dose: 400.0 mg/kg/injection, schedule: Q04DX003 (ip), vehicle: saline.
Setting [3] is: dose: 100.0 mg/kg/injection, schedule: Q01DX001 (ip), vehicle: saline.
Setting [4] is: dose: 200.0 mg/kg/injection, schedule: Q01DX001 (ip), vehicle: saline.
[5] abbreviates: dose: 400.0 mg/kg/injection, schedule: Q01DX001 (ip), vehicle: saline.
The mark [6] stands for this setting: dose: 150.0 mg/kg/injection, schedule: Q01DX001 (ip), vehicle: other.
The mark [7] stands for this setting: dose: 300.0 mg/kg/injection, schedule: Q01DX001 (ip), vehicle: other.
[8] abbreviates: dose: 40.0 mg/kg/injection, schedule: Q01DX001 (ip), vehicle: saline.
Where [9] appears, read: dose: 400.0 mg/kg/injection, schedule: Q01DX009 (ip), vehicle: Klucel (hydroxypropylcellulose) (HPC).
Where [10] appears, read: dose: 100.0 mg/kg/injection, schedule: Q01DX009 (ip), vehicle: saline with Tween-80.
[11] abbreviates: dose: 100.0 mg/kg/injection, schedule: Q04DX002 (ip), vehicle: saline.
The mark [12] stands for this setting: dose: 100.0 mg/kg/injection, schedule: Q04DX003 (ip), vehicle: saline.
Where [13] appears, read: dose: 200.0 mg/kg/injection, schedule: Q04DX003 (ip), vehicle: saline.

Regarding `O=C(Nc1cccc(F)c1)Nc1cc(C(F)(F)F)ccc1Cl`, the survivor count under setting [1] is on record as 6 of 6.

As to `COc1cccc[n+]1[O-]`, under setting [2], the survivor count is 0 of 6.

`CC(N=c1nc(N)ccn1C1OC(CO)C(O)C1O)C(=O)O` (configuration not stated): under “dose: 100.0 mg/kg/injection, schedule: Q01DX005 (ip), vehicle: saline”, the survivor count is 2 of 6.

As for `N#C/C(=N\N=Nc1ccccc1)c1cccc2ccccc12`, the survivor count (dose: 400.0 mg/kg/injection, schedule: Q01DX009 (ip), vehicle: gum acacia) was 0 of 6.

Turning to `CCC(CC)COC(=O)CI`, the survivor count was 2 of 4 under setting [3], 0 of 4 under setting [4] and 0 of 4 under setting [5].

On to `CCCCCCCCCCCCCCCCCC[n+]1cccc(C(=O)c2ccccc2)c1`, for which the survivor count was 1 of 6 (dose: 75.0 mg/kg/injection, schedule: Q01DX001 (ip), vehicle: other); 0 of 6 under setting [6]; 0 of 6 under setting [7].

For the molecule `O=NN(CCCl)C(=O)Nc1cccc(C(=O)O)c1`, the T/C is 126 % of control (dose: 1.25 mg/kg/injection, schedule: Q01DX001 (ip), vehicle: carboxymethylcellulose (CMC)); 126 % of control (dose: 2.5 mg/kg/injection, schedule: Q01DX001 (ip), vehicle: carboxymethylcellulose (CMC)); 127 % of control (dose: 18.0 mg/kg/injection, schedule: Q01DX001 (ip), vehicle: saline); 148 % of control (dose: 26.0 mg/kg/injection, schedule: Q01DX001 (ip), vehicle: saline). Further, the survivor count by setting is: under setting [8], 3 of 6; (dose: 60.0 mg/kg/injection, schedule: Q01DX001 (ip), vehicle: saline) 0 of 6; (dose: 90.0 mg/kg/injection, schedule: Q01DX001 (ip), vehicle: saline) 0 of 6; (dose: 120.0 mg/kg/injection, schedule: Q01DX001 (ip), vehicle: saline) 0 of 6.

On to `O=[N+]([O-])c1ccc(N=NNc2ccc(N=Nc3ccccc3)cc2)cc1`, for which the survivor count (dose: 100.0 mg/kg/injection, schedule: Q01DX009 (ip), vehicle: Klucel (hydroxypropylcellulose) (HPC)) is listed as 5 of 6.

For `C/C=C/C=N/NC(=O)c1ccc(OC)cc1`, the survivor count under setting [9] is 0 of 6.

`CCN(CC)C(=O)Nc1cccc(OC(=O)N(C)C)c1`: the survivor count (dose: 400.0 mg/kg/injection, schedule: Q01DX009 (ip), vehicle: saline with Tween-80) is 6 of 6.

Turning to `COC1C(c2ccccc2)NC(=O)C(Br)(C#N)C1c1ccccc1` (configuration not stated), the survivor count is, setting by setting: (dose: 50.0 mg/kg/injection, schedule: Q01DX009 (ip), vehicle: saline with Tween-80) 3 of 3; under setting [10], 3 of 3; under setting [1], 3 of 3.

Take `CCN=C(c1ccc(NC(=O)c2ccc(C(=O)Nc3ccc(C(=NCC)N(CC)C(C)=O)cc3)cc2)cc1)N(CC)C(C)=O`: where the note is “dose: 250.0 mg/kg/injection, schedule: Q01DX015 (ip), vehicle: methylcellulose (MC)”, the survivor count is 3 of 6.

In the case of `CN1C2CCCCC1CC(=O)NC2` (configuration not stated), the survivor count (dose: 300.0 mg/kg/injection, schedule: Q01DX001 (ip), vehicle: saline) was 0 of 6.

For `CC(c1ccccc1)n1ccnc1CC#N` (configuration not stated), the survivor count was 0 of 6 under setting [3]; 1 of 3, 2 of 6, 3 of 6, 2 of 3 under setting [11]; 0 of 6 and 1 of 6 under setting [12]; 0 of 3 and 0 of 6 (dose: 200.0 mg/kg/injection, schedule: Q04DX002 (ip), vehicle: saline); 0 of 6 under setting [13]; 0 of 3 and 0 of 6 (dose: 400.0 mg/kg/injection, schedule: Q04DX002 (ip), vehicle: saline). For the same molecule, the survivor count under setting [2] is 0 of 6. Also, under setting [11], the T/C is 121 % of control [2 of 3 alive].

Take `CC1CCC2(O)C3(C)CC(=O)OC2(C1O)C1(O)C(C)C(O)(C(C)C)C(O)C31O` (configuration not stated): the survivor count is given as 3 of 6 (dose: 10.0 mg/kg/injection, schedule: Q01DX001 (ip), vehicle: saline); 0 of 6 (dose: 20.0 mg/kg/injection, schedule: Q01DX001 (ip), vehicle: saline); 0 of 6 under setting [8]; 0 of 6 (dose: 80.0 mg/kg/injection, schedule: Q01DX001 (ip), vehicle: saline); 0 of 6 under setting [3]; 0 of 6 under setting [4]. For the same molecule, under setting [5], the survivor count is listed as 0 of 6.

Take `OC(CCl)CBr` (configuration not stated): the survivor count under setting [12] was 6 of 6, the survivor count under setting [13] is 0 of 6 and the survivor count under setting [2] is on record as 0 of 6.

`Nc1nc2c(=O)[nH]c(=O)[nH]c2n1C1OC(CO)C(O)C1O` (configuration not stated): the survivor count under setting [5] was 0 of 6.

In the case of `CC(C)(C)C(=O)CC(O)(C(F)(F)Cl)C(F)(F)Cl`, the survivor count (dose: 400.0 mg/kg/injection, schedule: Q04DX003 (ip), vehicle: saline with Tween-80) is on record as 3 of 6.

Regarding `C[C@H](CCC[C@H](C)OS(=O)(=O)c1ccccc1)OS(=O)(=O)c1ccccc1`, the T/C under setting [10] is 127 and 133 % of control.

For `O=C(O)CCCc1ccc2sc3ccccc3c2c1`, where the note is “dose: 400.0 mg/kg/injection, schedule: Q01DX001 (ip), vehicle: saline with Tween-80”, the survivor count is given as 2 of 6.

For `Cc1ccc(NC(=O)N(CCI)N=O)cc1`, the T/C is 125 % of control (dose: 26.0 mg/kg/injection, schedule: Q01DX015 (ip), vehicle: carboxymethylcellulose (CMC)); 129 % of control (dose: 40.0 mg/kg/injection, schedule: Q01DX015 (ip), vehicle: carboxymethylcellulose (CMC)); 148 % of control (dose: 58.0 mg/kg/injection, schedule: Q01DX015 (ip), vehicle: carboxymethylcellulose (CMC)); 127 % of control (dose: 60.0 mg/kg/injection, schedule: Q01DX015 (ip), vehicle: carboxymethylcellulose (CMC)); 125 % of control (dose: 88.0 mg/kg/injection, schedule: Q01DX015 (ip), vehicle: carboxymethylcellulose (CMC)); 126 % of control (dose: 100.0 mg/kg/injection, schedule: Q01DX001 (ip), vehicle: carboxymethylcellulose (CMC)). The T/C by setting is: (dose: 133.0 mg/kg/injection, schedule: Q01DX015 (ip), vehicle: carboxymethylcellulose (CMC)) 125 % of control; (dose: 200.0 mg/kg/injection, schedule: Q01DX001 (ip), vehicle: carboxymethylcellulose (CMC)) 138 % of control; (dose: 266.0 mg/kg/injection, schedule: Q01DX001 (ip), vehicle: carboxymethylcellulose (CMC)) 136 % of control; (dose: 400.0 mg/kg/injection, schedule: Q01DX001 (ip), vehicle: carboxymethylcellulose (CMC)) 140 % of control; (dose: 600.0 mg/kg/injection, schedule: Q01DX001 (ip), vehicle: carboxymethylcellulose (CMC)) 126 % of control [5 of 6 alive].

In the case of `CCN(CC)CC(O)c1ccccc1` (configuration not stated), the survivor count is given as 1 of 6 (dose: 100.0 mg/kg/injection, schedule: Q01DX009 (ip), vehicle: saline); 2 of 6 under setting [12]; 2 of 6 under setting [13]; 0 of 6 under setting [2].

Consider `CCN(CC)CCCC(C)Nc1cc(N)nc2nc(-c3ccccc3)c(-c3ccccc3)nc12` (configuration not stated), for which the survivor count is, setting by setting: (dose: 19.0 mg/kg/injection, schedule: Q01DX001 (ip), vehicle: other) 6 of 6; under setting [6], 0 of 6; under setting [7], 0 of 6.

For `CCCC(=O)Nc1cc(OC)ccc1OC`, under setting [9], the survivor count was 0 of 6.
